The supplement of paper PMC10849652
Some of the results follow.

Protein sequences, listed by entry. Tags and fused reporters are not part of them. Lines headed by an entry give the natural chain unless they say otherwise; changes in a name come on top.
UniProt Q7Z412: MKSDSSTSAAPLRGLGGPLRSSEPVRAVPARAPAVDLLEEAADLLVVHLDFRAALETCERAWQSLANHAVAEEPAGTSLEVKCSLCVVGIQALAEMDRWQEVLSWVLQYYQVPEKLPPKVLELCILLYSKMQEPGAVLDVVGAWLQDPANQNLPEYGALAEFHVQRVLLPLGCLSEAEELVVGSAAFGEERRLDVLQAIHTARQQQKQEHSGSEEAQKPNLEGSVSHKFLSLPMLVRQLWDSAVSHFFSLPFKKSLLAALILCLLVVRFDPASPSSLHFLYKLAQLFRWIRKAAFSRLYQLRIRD
UniProt O60825: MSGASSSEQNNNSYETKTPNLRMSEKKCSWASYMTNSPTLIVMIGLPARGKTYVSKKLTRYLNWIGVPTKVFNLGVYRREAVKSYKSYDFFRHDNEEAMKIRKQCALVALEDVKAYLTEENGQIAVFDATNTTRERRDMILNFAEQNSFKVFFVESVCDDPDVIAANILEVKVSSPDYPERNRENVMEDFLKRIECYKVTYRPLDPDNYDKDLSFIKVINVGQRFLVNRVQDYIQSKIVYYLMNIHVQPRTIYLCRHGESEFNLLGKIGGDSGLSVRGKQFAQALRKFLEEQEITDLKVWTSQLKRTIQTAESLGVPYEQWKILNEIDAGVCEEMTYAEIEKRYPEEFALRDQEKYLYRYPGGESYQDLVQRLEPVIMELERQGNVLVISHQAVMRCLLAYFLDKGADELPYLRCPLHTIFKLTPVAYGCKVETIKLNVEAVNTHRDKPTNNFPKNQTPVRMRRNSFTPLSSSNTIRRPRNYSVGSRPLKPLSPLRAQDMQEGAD
UniProt P48736: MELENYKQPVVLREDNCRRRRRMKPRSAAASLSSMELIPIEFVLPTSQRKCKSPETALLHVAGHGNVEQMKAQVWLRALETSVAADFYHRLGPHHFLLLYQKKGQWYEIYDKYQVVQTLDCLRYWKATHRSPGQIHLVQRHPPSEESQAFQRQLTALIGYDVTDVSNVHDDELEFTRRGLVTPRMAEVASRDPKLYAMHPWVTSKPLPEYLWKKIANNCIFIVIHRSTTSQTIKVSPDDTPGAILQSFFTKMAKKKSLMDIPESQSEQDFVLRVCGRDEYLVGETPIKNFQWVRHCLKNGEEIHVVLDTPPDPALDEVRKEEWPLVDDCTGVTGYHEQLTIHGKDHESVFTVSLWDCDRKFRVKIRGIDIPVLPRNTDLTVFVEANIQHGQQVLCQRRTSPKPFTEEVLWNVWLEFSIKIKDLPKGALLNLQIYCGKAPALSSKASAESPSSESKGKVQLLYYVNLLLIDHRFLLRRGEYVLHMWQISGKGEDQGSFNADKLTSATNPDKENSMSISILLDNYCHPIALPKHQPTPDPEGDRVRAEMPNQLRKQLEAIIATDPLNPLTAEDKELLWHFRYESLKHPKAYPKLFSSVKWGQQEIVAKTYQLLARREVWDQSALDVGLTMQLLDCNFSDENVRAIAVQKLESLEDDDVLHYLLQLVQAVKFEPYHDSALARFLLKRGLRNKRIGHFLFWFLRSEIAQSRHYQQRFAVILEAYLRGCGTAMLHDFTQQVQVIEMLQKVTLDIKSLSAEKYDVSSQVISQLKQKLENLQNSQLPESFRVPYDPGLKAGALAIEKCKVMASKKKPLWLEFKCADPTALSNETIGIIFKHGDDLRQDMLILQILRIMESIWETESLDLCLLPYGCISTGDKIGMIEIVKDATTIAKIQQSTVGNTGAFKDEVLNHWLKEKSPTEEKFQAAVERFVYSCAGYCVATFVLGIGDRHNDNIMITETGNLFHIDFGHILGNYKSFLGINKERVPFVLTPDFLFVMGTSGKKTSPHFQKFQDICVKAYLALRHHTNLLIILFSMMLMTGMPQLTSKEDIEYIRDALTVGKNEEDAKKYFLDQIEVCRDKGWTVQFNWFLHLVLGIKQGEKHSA
UniProt Q86T03: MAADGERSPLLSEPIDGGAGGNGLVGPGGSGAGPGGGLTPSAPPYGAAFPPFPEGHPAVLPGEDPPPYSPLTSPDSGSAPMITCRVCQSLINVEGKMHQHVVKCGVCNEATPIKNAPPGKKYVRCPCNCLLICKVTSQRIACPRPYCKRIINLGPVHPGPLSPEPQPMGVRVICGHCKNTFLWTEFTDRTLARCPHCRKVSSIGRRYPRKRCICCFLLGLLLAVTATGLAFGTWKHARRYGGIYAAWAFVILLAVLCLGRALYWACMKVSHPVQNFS
UniProt Q16875: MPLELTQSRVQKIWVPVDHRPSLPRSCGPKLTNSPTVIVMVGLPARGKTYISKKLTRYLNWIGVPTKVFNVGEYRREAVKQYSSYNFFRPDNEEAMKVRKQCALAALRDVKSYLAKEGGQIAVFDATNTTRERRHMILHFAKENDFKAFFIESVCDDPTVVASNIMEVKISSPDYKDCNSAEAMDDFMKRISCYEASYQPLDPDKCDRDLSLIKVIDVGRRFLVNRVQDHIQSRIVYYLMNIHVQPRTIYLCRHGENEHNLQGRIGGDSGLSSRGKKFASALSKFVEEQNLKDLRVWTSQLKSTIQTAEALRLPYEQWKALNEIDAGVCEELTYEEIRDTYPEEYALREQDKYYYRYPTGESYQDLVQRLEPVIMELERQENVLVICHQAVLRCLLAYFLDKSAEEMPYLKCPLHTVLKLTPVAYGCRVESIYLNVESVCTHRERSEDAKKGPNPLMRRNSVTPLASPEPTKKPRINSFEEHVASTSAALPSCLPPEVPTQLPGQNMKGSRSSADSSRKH
UniProt P30613: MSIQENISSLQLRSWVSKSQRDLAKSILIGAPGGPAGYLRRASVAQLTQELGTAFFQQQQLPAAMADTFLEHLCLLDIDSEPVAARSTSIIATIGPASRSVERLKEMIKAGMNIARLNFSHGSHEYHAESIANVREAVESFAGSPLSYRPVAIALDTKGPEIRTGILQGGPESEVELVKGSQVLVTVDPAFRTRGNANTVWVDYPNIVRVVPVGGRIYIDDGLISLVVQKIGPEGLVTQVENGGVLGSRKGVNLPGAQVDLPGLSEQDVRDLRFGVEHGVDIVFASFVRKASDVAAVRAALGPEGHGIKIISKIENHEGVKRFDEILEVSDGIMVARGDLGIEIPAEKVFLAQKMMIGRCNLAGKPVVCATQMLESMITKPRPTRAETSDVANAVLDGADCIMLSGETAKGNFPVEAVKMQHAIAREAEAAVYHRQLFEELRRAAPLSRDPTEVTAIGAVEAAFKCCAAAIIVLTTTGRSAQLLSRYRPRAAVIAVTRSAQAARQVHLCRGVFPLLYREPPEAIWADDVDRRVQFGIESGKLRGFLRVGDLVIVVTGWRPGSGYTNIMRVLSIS
UniProt Q16512: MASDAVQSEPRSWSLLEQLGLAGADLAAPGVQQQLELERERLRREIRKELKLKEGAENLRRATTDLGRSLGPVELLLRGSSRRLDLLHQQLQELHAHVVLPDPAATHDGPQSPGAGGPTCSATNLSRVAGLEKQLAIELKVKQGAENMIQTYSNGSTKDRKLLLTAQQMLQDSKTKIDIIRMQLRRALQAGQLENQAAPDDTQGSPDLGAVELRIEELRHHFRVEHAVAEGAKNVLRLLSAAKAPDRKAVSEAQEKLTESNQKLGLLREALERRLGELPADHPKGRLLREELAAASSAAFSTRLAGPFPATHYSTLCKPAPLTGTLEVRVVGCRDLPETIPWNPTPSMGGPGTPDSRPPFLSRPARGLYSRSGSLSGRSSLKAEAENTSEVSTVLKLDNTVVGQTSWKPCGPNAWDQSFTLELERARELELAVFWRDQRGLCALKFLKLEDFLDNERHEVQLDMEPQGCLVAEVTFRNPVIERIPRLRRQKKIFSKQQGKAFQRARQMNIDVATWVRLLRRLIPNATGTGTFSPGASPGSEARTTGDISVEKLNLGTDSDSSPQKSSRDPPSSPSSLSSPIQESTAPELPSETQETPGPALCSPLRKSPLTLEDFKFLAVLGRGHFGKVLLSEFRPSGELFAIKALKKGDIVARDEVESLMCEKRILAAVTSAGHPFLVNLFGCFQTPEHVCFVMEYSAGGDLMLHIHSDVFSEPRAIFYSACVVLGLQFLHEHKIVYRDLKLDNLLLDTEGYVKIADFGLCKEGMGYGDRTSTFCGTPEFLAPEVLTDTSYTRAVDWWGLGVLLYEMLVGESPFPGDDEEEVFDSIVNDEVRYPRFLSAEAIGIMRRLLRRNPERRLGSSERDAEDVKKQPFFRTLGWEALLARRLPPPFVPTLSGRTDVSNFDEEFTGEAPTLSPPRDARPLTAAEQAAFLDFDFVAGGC
UniProt O15212, whole entry, looked up: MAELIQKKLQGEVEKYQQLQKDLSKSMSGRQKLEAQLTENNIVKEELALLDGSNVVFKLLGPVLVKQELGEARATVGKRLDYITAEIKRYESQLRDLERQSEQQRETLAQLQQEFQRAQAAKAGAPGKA
UniProt Q8TCD6: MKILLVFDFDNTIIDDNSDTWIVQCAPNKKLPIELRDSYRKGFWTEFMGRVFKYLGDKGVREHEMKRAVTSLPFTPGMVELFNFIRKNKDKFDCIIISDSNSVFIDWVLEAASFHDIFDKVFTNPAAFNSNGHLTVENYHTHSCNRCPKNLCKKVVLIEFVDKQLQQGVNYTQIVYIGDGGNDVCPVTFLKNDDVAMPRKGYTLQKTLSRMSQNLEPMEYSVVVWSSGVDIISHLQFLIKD
UniProt P53609, whole entry, looked up: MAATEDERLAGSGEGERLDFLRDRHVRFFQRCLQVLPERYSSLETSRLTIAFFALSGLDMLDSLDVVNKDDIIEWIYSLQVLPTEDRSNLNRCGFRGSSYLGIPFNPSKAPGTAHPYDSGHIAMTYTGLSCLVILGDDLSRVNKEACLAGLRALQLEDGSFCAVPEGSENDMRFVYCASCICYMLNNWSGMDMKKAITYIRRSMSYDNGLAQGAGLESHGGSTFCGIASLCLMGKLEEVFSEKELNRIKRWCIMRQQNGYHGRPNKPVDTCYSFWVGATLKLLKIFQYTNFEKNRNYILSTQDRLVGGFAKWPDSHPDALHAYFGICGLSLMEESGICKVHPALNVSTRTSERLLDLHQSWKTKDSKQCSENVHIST
UniProt P56589: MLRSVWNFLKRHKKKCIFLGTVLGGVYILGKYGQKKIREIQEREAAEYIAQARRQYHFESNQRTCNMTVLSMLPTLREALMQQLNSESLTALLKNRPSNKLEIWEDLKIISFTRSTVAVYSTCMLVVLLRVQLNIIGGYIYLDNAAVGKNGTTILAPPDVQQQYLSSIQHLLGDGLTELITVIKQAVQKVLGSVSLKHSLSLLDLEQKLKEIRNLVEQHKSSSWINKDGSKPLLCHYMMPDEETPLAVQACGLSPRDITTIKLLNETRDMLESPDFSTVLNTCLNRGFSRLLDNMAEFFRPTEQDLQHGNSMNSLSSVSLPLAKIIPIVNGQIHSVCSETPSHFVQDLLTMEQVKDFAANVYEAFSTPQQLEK
UniProt P28328: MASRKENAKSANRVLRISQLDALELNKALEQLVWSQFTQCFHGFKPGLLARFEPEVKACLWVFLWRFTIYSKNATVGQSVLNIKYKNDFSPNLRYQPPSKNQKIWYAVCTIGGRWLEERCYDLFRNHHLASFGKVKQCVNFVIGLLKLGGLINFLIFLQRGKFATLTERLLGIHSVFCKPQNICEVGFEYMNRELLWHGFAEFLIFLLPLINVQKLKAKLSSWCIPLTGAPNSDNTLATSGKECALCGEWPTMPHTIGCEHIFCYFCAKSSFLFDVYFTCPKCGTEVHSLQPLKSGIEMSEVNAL
UniProt P48426: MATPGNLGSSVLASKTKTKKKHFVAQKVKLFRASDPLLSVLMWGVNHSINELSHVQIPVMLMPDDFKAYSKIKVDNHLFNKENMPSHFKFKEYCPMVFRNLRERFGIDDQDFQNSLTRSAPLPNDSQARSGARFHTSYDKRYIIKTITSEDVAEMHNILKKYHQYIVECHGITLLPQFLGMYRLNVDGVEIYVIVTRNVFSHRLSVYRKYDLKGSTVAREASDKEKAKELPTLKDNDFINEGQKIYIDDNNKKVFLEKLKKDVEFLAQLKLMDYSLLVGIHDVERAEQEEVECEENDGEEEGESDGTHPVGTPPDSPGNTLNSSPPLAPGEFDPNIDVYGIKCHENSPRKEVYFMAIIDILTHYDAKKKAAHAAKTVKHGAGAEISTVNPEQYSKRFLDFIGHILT
UniProt Q8TCG2: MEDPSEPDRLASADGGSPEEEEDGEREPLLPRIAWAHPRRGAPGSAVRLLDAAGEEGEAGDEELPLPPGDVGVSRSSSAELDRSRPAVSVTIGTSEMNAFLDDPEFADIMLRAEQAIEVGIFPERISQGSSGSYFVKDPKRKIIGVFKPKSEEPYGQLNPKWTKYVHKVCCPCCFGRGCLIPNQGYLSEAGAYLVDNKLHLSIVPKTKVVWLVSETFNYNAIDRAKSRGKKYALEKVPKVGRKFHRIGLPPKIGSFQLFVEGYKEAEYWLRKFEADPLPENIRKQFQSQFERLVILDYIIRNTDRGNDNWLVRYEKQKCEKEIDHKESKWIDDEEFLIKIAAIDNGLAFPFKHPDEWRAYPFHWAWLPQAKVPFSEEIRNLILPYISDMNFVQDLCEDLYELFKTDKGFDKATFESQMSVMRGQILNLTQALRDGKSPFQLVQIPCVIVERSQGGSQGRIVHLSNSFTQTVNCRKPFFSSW

Legend:
Assay in all cases: log2 fold change, soluble protein after heating vs DMSO (PISA); higher = thermal stabilisation; K562 cells, 10 uM, 30 min; active = over 0.2 and 3.5 SD of the protein, either way, in both replicates (recomputed)
erlotinib = compound: C#Cc1cccc(Nc2ncnc3cc(OCCOC)c(OCCOC)cc23)c1 [erlotinib]
Method in brief: (§1)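 K562 cells at 2×10^6 cells/mL were treated with 10 μM compound for 30 min. Aliquots were heated for 3 min across 48°C-58°C, pooled, and extracted in PBS with 0.5% NP-40 at 4°C; soluble protein was the supernatant after 21,000xg for 90 min. Soluble protein was quantified by TMTpro 16plex LC-MS/MS with channel sums equalised, and reported as log2 fold change in thermal stability against DMSO controls, with values from duplicates.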

[1] = compound: C/C(=N\NC(=O)C1=CC(=CC=C1)S(=O)(=O)N2CCOCC2)/C3=C(C=CC(=C3)Cl)O
Method in brief: as §1

[2] = compound: C1=CC(=C(C=C1Cl)C2=NC3=NC=CN=C3C(=N2)NC4=CC=NC=C4)F
Method in brief: as §1

[3] = compound: C1=CC(=CC=C1C2=NC3=C(N2)C=C(C=C3)C(=O)N)OC4=CC=C(C=C4)Cl
Method in brief: as §1

[4] = compound: C1=CC2=C(C=CC(=C2)/C=C\3/C(=O)NC(=NCC4=CC=CS4)S3)N=C1
Method in brief: as §1

[5] = compound: C1=CC=C(C=C1)C2=NC(=C(N2)C3=CC=NC=C3)C4=CC(=C(C=C4)Cl)O
Method in brief: as §1

[6] = compound: C1=CC=C2C(=C1)C3=NNC4=CC=CC(=C43)C2=O
Method in brief: as §1

[7] = compound: C1CCN(C1)C(=O)NC2=CC=CC(=C2)NC3=NC=C(C(=N3)NCCC4=CN=CN4)Br
Method in brief: as §1

[8] = compound: C1CN(CCC1(CC2=CC=C(C=C2)Cl)N)C3=NC=NC4=C3C=CN4
Method in brief: as §1

[9] = compound: C1=CC2=NC=CN=C2C=C1/C=C/3\C(=O)NC(=O)S3
Method in brief: as §1

Measured: log2 fold change

PEX26 (UniProt Q7Z412)
inactive: erlotinib -0.059 | [1] -0.004 | [2] -0.071 | [3] -0.014 | [4] 0.239 | [5] -0.101 | [6] -0.16 | [7] -0.145 | [8] 0.188

PFKFB2 (UniProt O60825)
inactive: erlotinib 0.017 | [1] 0.001 | [2] 0.101 | [3] 0.009 | [4] 0.019 | [9] -0.064 | [5] 0.023 | [6] -0.043 | [7] 0.013 | [8] 0.054

PI4KB (UniProt Q9UBF8)
inactive: erlotinib 0.02 | [1] 0.009 | [2] 0.07 | [3] 0.025 | [4] -0.013 | [9] 0.035 | [5] 0.003 | [6] 0.054 | [7] 0.011 | [8] -0.016

PLEKHA5 isoform 6 (UniProt Q9HAU0)
inactive: erlotinib 0.09 | [1] 0.09 | [2] 0.073 | [3] 0.115 | [4] 0.059 | [6] 0.046 | [7] 0.04 | [8] -0.096

PIK3CG (UniProt P48736)
inactive: erlotinib -0.133 | [1] -0.512 | [2] -0.074 | [3] 0.029 | [4] 0.361 | [6] -0.347

PIP4P1 isoform 2 (UniProt Q86T03)
inactive: erlotinib 0.057 | [1] 0.001 | [2] 0.052 | [3] -0.014 | [4] -0.104 | [9] 0.068 | [5] 0.002 | [6] 0.035 | [7] -0.028 | [8] 0.101

PFKFB3 isoform 4 (UniProt Q16875)
inactive: erlotinib -0.04 | [1] 0.038 | [2] 0.074 | [3] 0.013 | [4] 0.039 | [9] -0.063 | [5] 0.005 | [6] -0.005 | [7] -0.035 | [8] 0.003

PKLR (UniProt P30613)
inactive: erlotinib 0.01 | [1] -0.004 | [2] 0.042 | [3] -0.006 | [4] -0.02 | [9] -0.001 | [5] -0.032 | [6] 0.023 | [7] -0.025 | [8] 0.041

PKN1 isoform 2 (UniProt Q16512)
active: [8] -0.326
inactive: erlotinib 0.018 | [1] 0.088 | [2] 0.064 | [3] 0.055 | [4] 0.059 | [9] 0 | [5] 0.011 | [6] 0 | [7] -0.061

PKNOX1 (UniProt P55347)
inactive: erlotinib -0.145 | [1] 0.06 | [3] 0.177 | [4] 0.261 | [6] -0.022

PFDN6 (UniProt O15212)
inactive: erlotinib 0.006 | [1] -0.022 | [2] 0.068 | [3] 0.001 | [4] 0.049 | [9] 0.026 | [5] -0.062 | [6] 0.008 | [7] -0.049 | [8] -0.029

PHF5A (UniProt Q7RTV0)
inactive: erlotinib 0.008 | [1] -0.005 | [2] 0.03 | [3] -0.034 | [4] -0.049 | [9] 0.017 | [5] -0.03 | [6] -0.05 | [7] -0.02 | [8] 0.022

PHOSPHO2 (UniProt Q8TCD6)
inactive: erlotinib 0.013 | [1] 0.044 | [3] -0.034 | [4] 0.036 | [9] 0.039 | [5] 0.154 | [6] -0.032 | [7] 0.077 | [8] -0.309

PHLDB1 isoform 2 (UniProt Q86UU1)
inactive: erlotinib -0.02 | [1] 0.03 | [2] 0.099 | [3] 0.027 | [4] 0.165 | [9] -0.093 | [5] 0.008 | [6] -0.125 | [7] -0.048 | [8] 0.025

Reprinted from the results shown (two entries):
PHOSPHO2 (UniProt Q8TCD6)
inactive: erlotinib 0.013 | [1] 0.044 | [3] -0.034 | [4] 0.036 | [9] 0.039 | [5] 0.154 | [6] -0.032 | [7] 0.077 | [8] -0.309

PHLDB1 isoform 2 (UniProt Q86UU1)
inactive: erlotinib -0.02 | [1] 0.03 | [2] 0.099 | [3] 0.027 | [4] 0.165 | [9] -0.093 | [5] 0.008 | [6] -0.125 | [7] -0.048 | [8] 0.025

(continued)

PIKFYVE (UniProt Q9Y2I7)
inactive: erlotinib -0.174 | [1] 0.111 | [2] 0.082 | [3] 0.082 | [4] -0.007 | [9] 0.075 | [5] 0.04 | [6] -0.014 | [7] 0.037 | [8] -0.108

PGGT1B (UniProt P53609)
inactive: erlotinib 0.024 | [1] 0.036 | [2] 0.114 | [3] 0.006 | [4] 0.049 | [9] -0.002 | [5] 0.021 | [6] -0.036 | [7] 0.054 | [8] 0.027

PFN1 (UniProt I3L3D5)
inactive: erlotinib 0.09 | [1] -0.091 | [2] -0.207 | [3] 0.129 | [4] 0.344 | [9] -0.172 | [5] -0.124 | [6] -0.198 | [7] 0.21 | [8] 0.045

PIGS (UniProt Q96S52)
inactive: erlotinib -0.032 | [1] 0.03 | [2] -0.02 | [3] -0.015 | [4] 0.028 | [9] 0.034 | [5] 0.021 | [6] -0.03 | [7] -0.035 | [8] 0.009

PEX3 (UniProt P56589)
inactive: erlotinib -0.003 | [1] 0.037 | [2] 0.02 | [3] -0.004 | [4] -0.013 | [5] 0.026 | [6] 0.079 | [7] 0.016 | [8] -0.152

PIGK (UniProt Q92643)
inactive: erlotinib 0.046 | [1] -0.063 | [2] -0.019 | [3] -0.013 | [4] 0.019 | [9] 0.034 | [5] -0.01 | [6] -0.033 | [7] -0.045 | [8] 0.034

PEX2 (UniProt P28328)
inactive: erlotinib -0.067 | [1] 0.07 | [2] 0.092 | [3] -0.087 | [4] 0.025 | [9] 0.129 | [5] 0.039 | [6] -0.011 | [7] -0.069 | [8] 0.068

PIK3R1 (UniProt P27986)
inactive: erlotinib 0.01 | [1] 0.033 | [2] 0.025 | [3] 0.048 | [4] 0.036 | [9] 0.14 | [5] -0.022 | [6] -0.027 | [7] -0.024 | [8] 0.05

PIP4K2A (UniProt P48426)
inactive: erlotinib 0.172 | [1] 0.028 | [2] 0.075 | [3] -0.058 | [4] -0.065 | [9] 0.287 | [5] 0.108 | [6] 0.076 | [7] 0.162 | [8] -0.013

PHACTR2 isoform 4 (UniProt O75167)
inactive: erlotinib 0.03 | [1] -0.07 | [2] -0.019 | [3] 0.016 | [4] 0.15 | [9] -0.014 | [5] -0.094 | [6] -0.051 | [7] -0.008 | [8] 0.085

PIGW (UniProt Q7Z7B1)
inactive: erlotinib 0.147 | [1] 0.091 | [2] 0.085 | [3] -0.044 | [4] 0.09 | [9] -0.085 | [6] -0.012 | [7] 0.09 | [8] 0.129

PI4K2B (UniProt Q8TCG2)
inactive: erlotinib -0.003 | [1] -0.008 | [3] 0.065 | [4] 0.004 | [9] 0.016 | [5] -0.019 | [6] -0.007 | [7] 0.048 | [8] -0.173

PJA2 (UniProt O43164)
inactive: erlotinib -0.006 | [1] -0.047 | [2] -0.049 | [3] 0.018 | [4] 0.003 | [9] 0.071 | [5] -0.061 | [6] -0.112 | [7] -0.024 | [8] -0.009

PLAA (UniProt Q9Y263)
inactive: erlotinib 0.033 | [1] 0.012 | [2] 0 | [3] 0.05 | [4] -0.006 | [9] -0.02 | [5] 0.045 | [6] -0.024 | [7] -0.006 | [8] -0.019

PIK3CD (UniProt O00329)
inactive: erlotinib -0.044 | [1] -0.224 | [2] 0.095 | [3] 0.181 | [4] 0.114 | [9] 0.241 | [5] -0.052 | [6] -0.063 | [7] -0.077 | [8] -0.013

PHPT1 (UniProt Q9NRX4)
inactive: erlotinib 0.033 | [1] 0.026 | [2] 0.061 | [3] 0.032 | [4] 0.031 | [9] 0.018 | [5] -0.02 | [6] -0.014 | [7] -0.004 | [8] -0.053

PGS1 (UniProt Q32NB8)
inactive: erlotinib 0.011 | [1] 0.051 | [2] 0.137 | [3] 0.074 | [4] 0.029 | [9] -0.009 | [6] 0.013 | [7] -0.201 | [8] 0.085

PFDN2 (UniProt Q9UHV9)
inactive: erlotinib -0.028 | [1] 0.06 | [2] 0.015 | [3] -0.024 | [4] 0.01 | [9] 0.027 | [5] -0.042 | [6] -0.023 | [7] -0.02 | [8] 0.021
